In US20240199600A1, “CONDENSED HETEROCYCLIC COMPOUND HAVING A SULFONAMIDE GROUP OR SALT THEREOF, AGRICULTURAL OR HORTICULTURAL INSECTICIDE OR ANIMAL ECTOPARASITE OR ENDOPARASITE CONTROL AGENT COMPRISING THE COMPOUND OR THE SALT THEREOF, AND METHOD FOR USING THE COMPOUND OR THE SALT THEREOF, THE INSECTICIDE, OR THE …” (NIHON NOHYAKU CO., LTD., priority 2021, published 2024):
Some entries share one result that the patent states for a list of compounds.

Tested on: Myzus persicae
Assay: Test for control efficacy on Myzus persicae (foliar application, potted Chinese cabbage)
Assay type: in vivo
Conditions: 500 ppm, foliar application to Chinese cabbage plants, 6 days after application

With CN(C)S(=O)(=O)c1cc(C2CC2)cnc1-c1nc2cc(SC(F)(F)F)ccc2o1 [Compound 4-6, 5-cyclopropyl-N,N-dimethyl-2-(5-trifluoromethylthiobenzoxazol-2-yl)pyridine-3-sulfonamide] the “control efficacy (control rate), activity level” value was “A (the control rate is 100%)”.
